Assay: Whitening performance in hand sheets, wood-containing pulp

Compound | CIE whiteness (0.04 wt % FWA on dry pulp) | L* (0.04 wt % FWA on dry pulp) | a* (0.04 wt % FWA on dry pulp) | b* (0.04 wt % FWA on dry pulp) | CIE whiteness (0.08 wt % FWA on dry pulp) | L* (0.08 wt % FWA on dry pulp) | a* (0.08 wt % FWA on dry pulp) | b* (0.08 wt % FWA on dry pulp) | CIE whiteness (0.16 wt % FWA on dry pulp) | L* (0.16 wt % FWA on dry pulp) | a* (0.16 wt % FWA on dry pulp) | b* (0.16 wt % FWA on dry pulp) | CIE whiteness (0.24 wt % FWA on dry pulp) | L* (0.24 wt % FWA on dry pulp) | a* (0.24 wt % FWA on dry pulp) | b* (0.24 wt % FWA on dry pulp) | CIE whiteness (0.32 wt % FWA on dry pulp) | L* (0.32 wt % FWA on dry pulp) | a* (0.32 wt % FWA on dry pulp) | b* (0.32 wt % FWA on dry pulp)
O=S(=O)([O-])c1cc(Nc2nc(Nc3ccccc3)nc(N(CCO)CCO)n2)ccc1/C=C/c1ccc(Nc2nc(Nc3ccccc3)nc(N(CCO)CCO)n2)cc1S(=O)(=O)[O-].[Na+].[Na+] [Comparative 1, reference compound] | 50.01 | 93.85 | −0.11 | 7.61 | 56.60 | 94.01 | 0.16 | 6.27 | 62.58 | 94.18 | 0.26 | 5.06 | 65.75 | 94.24 | 0.30 | 4.40 | 67.23 | 94.32 | 0.29 | 4.12
CC(O)CN(CC(C)O)c1nc(Nc2ccc(C(=O)[O-])cc2)nc(Nc2ccc(/C=C/c3ccc(Nc4nc(Nc5ccc(C(=O)[O-])cc5)nc(N(CC(C)O)CC(C)O)n4)cc3S(=O)(=O)[O-])c(S(=O)(=O)[O-])c2)n1.[Na+].[Na+].[Na+].[Na+] (stereo not drawn) [FWA 2] | 50.86 | 93.84 | −0.10 | 7.42 | 57.77 | 94.02 | 0.17 | 6.02 | 64.23 | 94.09 | 0.33 | 4.65 | 67.19 | 94.12 | 0.36 | 4.02 | 68.76 | 94.31 | 0.35 | 3.78
O=C([O-])c1ccc(Nc2nc(Nc3ccc(/C=C/c4ccc(Nc5nc(Nc6ccc(C(=O)[O-])cc6)nc(N(CCO)CCO)n5)cc4S(=O)(=O)[O-])c(S(=O)(=O)[O-])c3)nc(N(CCO)CCO)n2)cc1.[Na+].[Na+].[Na+].[Na+] [FWA 1] | 52.12 | 93.83 | −0.08 | 7.14 | 59.30 | 94.08 | 0.22 | 5.72 | 65.61 | 94.20 | 0.30 | 4.41 | 68.43 | 94.31 | 0.22 | 3.85 | 69.74 | 94.45 | 0.18 | 3.64
